Screening data, single-dose tests

From ChEMBL document CHEMBL3988442, “University of Dundee, Small-Polar-MMV Screening Library” (2021).

Values are the deposited “Percent Effect”, in %.
The controls that fix the scale are not given in the record; negative values are as filed.
The compounds are a random part of those screened.
Two or more numbers in one place are separate tests of the same structure; such repeats can differ widely.

Mtb cholesterol medium: 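Growth of Mycobacterium tuberculosis over 4 days (cholesterol / DPPC medium with tyloxapol); the read-out is not stated. Tested at 50 µM. Direction is inferred from retests: higher values go with more growth inhibition. Of about 69,000 compounds tested this way, about 370 (0.54%) reached 50% or more in at least one test.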
Mtb glucose medium: 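Growth of Mycobacterium tuberculosis over 3 days (7H9 medium with glucose and tyloxapol); the read-out is not stated. Compounds at 50 µM. Higher reads as more growth inhibition (inferred: compounds with an IC50 in retests scored well above the rest). Of about 69,000 compounds tested this way, about 760 (1.1%) reached 50% or more in at least one test.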

| compound | Mtb cholesterol medium | Mtb glucose medium |
|---|---|---|
| `CCOc1ccc(C(=O)N2CCCC2c2c(C)nn(C)c2Cl)cn1` (stereo not shown) | 11.65 | -0.5503 and 2.121 |
| `Cc1ccc(NC2(C(=O)NCc3c(C)n[nH]c3C)CCCC2)cc1` | 2.83 and -7.984 | -3.443 |
| `O=C(O)C(F)(F)F.O=C(O)C(F)(F)F.[H][C@@]12COC[C@]1([H])[C@@H](OCc1csc(C)n1)CN2Cc1cccs1` | 1.823 | -5.737 |
| `CC(Cn1ccnc1)NC(=O)NCCN1CCc2ccccc2C1` (stereo not shown) | 10.93 | 15.34 and -1.644 |
| `COC[C@]1(O)CCN(c2cc(C3CC3)ncn2)CC1(C)C` | 5.004 | 2.489 |
| `CC(C)[C@H](N)CC(=O)Nc1nc(-c2cnc(N3CCOCC3)nc2)cs1.Cl` | 4.258 | 28.37 |
| `O=C1CCC[C@]2(CN(S(=O)(=O)N3CCCCC3)C[C@H]2c2cccnc2)N1` | -4 | -16.73 |
| `CC(C)S(=O)(=O)C(C)C(=O)Nc1ccc2oc(C3CC3)nc2c1` (stereo not shown) | 21.34 | 24.6 |
| `O=S(=O)(CC1CCCN1S(=O)(=O)c1cccnc1)c1ccccc1` (stereo not shown) | 2.763 | 25.61 |
| `COCCCC(=O)N(CCC(=O)O)Cc1ccc(F)c(F)c1` | 8.621 | 11.34 |
| `CC(=O)N1CCN(CC(=O)NCCCN(C)c2ccccc2)CC1` | -3.908 and -3.973 | -20.93 |
| `COc1cc(N2CCCC(c3nccn3Cc3cscn3)C2)nc(N)n1` (stereo not shown) | -27.42 | -21.82 |
| `CC(=O)NCC1CCN(C(=O)NCc2ccc3c(c2)OCCO3)CC1` | -13.53 | -3.405 and 11.26 |
| `COc1ccc(S(=O)(=O)N2Cc3c(CN(C)C)nn(C)c3C2)cc1.O=C(O)C(F)(F)F` | -19.59 and -9.203 | -27.32 and -4.52 |
| `CCn1c(CN2CCCC2)nnc1C1CCN(Cc2ccccn2)CC1` | -14.6 | -3.648 and -10.7 |
| `COCCN1CCCn2c(nc(Cn3cncn3)cc2=O)C1.O=C(O)C(F)(F)F` | -13.52 | -1.961 |
| `CC(C)(C)OC(=O)N1CCCCC(NC(=O)CCc2cccnc2)C1` (stereo not shown) | 3.681 | 8.493 |
| `CN(C)C(C(=O)N1CC(c2ccccn2)C1)c1ccc2c(c1)OCO2` (stereo not shown) | 1.506 | 11.1 |
| `CCOc1ccc(NC(=O)N2CCNC(=O)C2)c(C(F)(F)F)c1` | 12.23 | 14.81 |
| `Cc1ccc(NC2CCN(C(=O)c3n[nH]c4ccccc34)CC2)nn1` | -8.311 | -19.76 |
| `CN(Cc1nnc2n1CCC2)C(=O)c1ccc2c(c1)CCO2` | -17.16 | -19.83 |
| `CC(C)n1cc(N2CC(C(=O)N3CCc4ccccc4C3)CC2=O)cn1` (stereo not shown) | -2.155 | -21.29 and 0.6388 |
| `CCC(CC)NC(=O)c1ccc2nnc(C3CCN(C(C)=O)C3)n2c1` (stereo not shown) | -13.64 | -14.11 and -32.7 |
| `CC1(C)CN(CC(F)(F)F)CCN1CC(=O)NC1CC1` | 1.388 | 24.16 |
| `Cc1ccc(OC2(C(=O)O)CCN(C(=O)c3ccccc3F)CC2)cn1` | 7.154 | -9.772 |
| `O=C(NCCNc1ncccn1)c1ccc(Cl)s1` | 2.643 and -6.369 | 21.37 |
| `CC(C)c1nc(C2CCCN(C(=O)CN(C)S(C)(=O)=O)C2)no1` (stereo not shown) | -13.65 | -4.101 and -9.68 |
| `COc1ccc(COCC(O)CNC(=O)c2ccncc2)cc1` (stereo not shown) | 2.782 | 23.08 |
| `O=C(c1cnn2c1OCCC2)N1CCC(Cc2ccccc2)CC1` | -8.002 | -3.8 |
| `COc1ccc(-c2cc(CNc3ncnc4c3CCNCC4)no2)cc1` | 21.52 | 15.72 |
| `CCN1CCCc2cc(CN3CCc4c(nc(C)[nH]c4=O)C3)ccc21` | -6.834 and 5.263 | 10.21 |
| `O=C(O)C(F)(F)F.c1nc2c(c(C3CC3)n1)CCN(CC1CCOC1)CC2` (stereo not shown) | 3.447 | 18.91 |
| `CCCSc1ncc(C2CC(=O)NCc3nc4ccccn4c32)cn1` (stereo not shown) | 17.2 | 23.25 |
| `O=C(NCc1ccon1)N1CCC(n2ccc(C(F)(F)F)n2)CC1` | 22.25 | 21.28 |
| `CN1CCN(Cc2cccnc2)C2(CCN(c3ncccn3)C2)C1=O.O=C(O)C(F)(F)F.O=C(O)C(F)(F)F` (stereo not shown) | -1.04 | 3.211 and -4.561 |
| `CS(=O)(=O)CCC(=O)NC(Cc1ccccc1)C1CC1` (stereo not shown) | 10.54 | 5.186 |
| `Cc1nc(C2CCCN2C(=O)CCn2cncn2)no1` (stereo not shown) | 0.5861 | 4.226 |
| `Cn1cnnc1S(=O)(=O)C1CCN(C(=O)c2ccco2)CC1` | 32.92 | -6.038 |
| `[H][C@@]12C[C@@H](c3nc(C)no3)O[C@]1([H])CN(S(=O)(=O)c1cccc(C)c1)C2` | 17.02 | 18.45 |
| `CC(C)C(=O)NCC(=O)N(C)C1CCCN(CCc2ccccc2)C1` (stereo not shown) | 3.501 | -2.999 |
| `CC(NC(=O)c1coc(COc2cccc(F)c2)n1)c1nnc(N)s1` (stereo not shown) | -22.21 and 5.659 | 2.883 and -17.54 |
| `Cc1nnc(CN2CCN(Cc3nccn3C)CC2)n1C` | -10.39 | -7.965 and -18.38 |
| `O=C(NC1CCN(c2nccs2)CC1)c1cccs1` | -2.592 | 7.306 and 2.147 |
| `O=C(NCCN1CCNC1=O)c1cc(-c2ccc(O)cc2)n[nH]1` | -8.647 | -8.41 |
| `CSC1=Nc2c(cnn2-c2ccccc2)C2=NCCCN12` | 22.85 | 40.68 |

Some entries from above, unchanged:

| compound | Mtb cholesterol medium | Mtb glucose medium |
|---|---|---|
| `CC(C)n1cc(N2CC(C(=O)N3CCc4ccccc4C3)CC2=O)cn1` (stereo not shown) | -2.155 | -21.29 and 0.6388 |
| `COCCCC(=O)N(CCC(=O)O)Cc1ccc(F)c(F)c1` | 8.621 | 11.34 |
| `CC1(C)CN(CC(F)(F)F)CCN1CC(=O)NC1CC1` | 1.388 | 24.16 |